The list shows a part of the results, in another mix than the full data. At the low end of the ranking the order means little.
Tests used:
Test in all cases: DAPPL (digital affinity profiling via proximity ligation, sequencing)
Details in all cases: 10 mM Tris-HCl pH 7.5, 50 mM NaCl, 1 mM DTT, 4% glycerol, room temperature, 30 min; GST-TFs on glutathione beads, 16-mer random dsDNA library, 0.1% …; high values mean tight binding; double strand, one strand shown; scale: fold enrichment (6-mer frequency, TF over GST control)
ETV5 = ETV5 (UniProt P41161)
ETV3L = molecular target: T1, ETV3L (UniProt Q6ZN32)
T1 sequence: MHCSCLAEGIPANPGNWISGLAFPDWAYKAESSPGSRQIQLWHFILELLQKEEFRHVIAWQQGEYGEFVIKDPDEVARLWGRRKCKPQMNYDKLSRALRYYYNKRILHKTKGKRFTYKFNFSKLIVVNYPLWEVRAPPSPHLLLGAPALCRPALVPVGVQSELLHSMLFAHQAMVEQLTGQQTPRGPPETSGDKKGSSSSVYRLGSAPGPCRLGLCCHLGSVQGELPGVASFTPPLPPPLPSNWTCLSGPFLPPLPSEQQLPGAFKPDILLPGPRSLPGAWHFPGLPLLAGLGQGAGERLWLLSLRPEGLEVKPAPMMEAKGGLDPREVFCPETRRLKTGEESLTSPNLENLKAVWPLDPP

Sequences of proteins named here, by UniProt entry; tags and fusion partners are left off. A change or cut given only in a name is not applied to a line headed by its entry.
UniProt P41161: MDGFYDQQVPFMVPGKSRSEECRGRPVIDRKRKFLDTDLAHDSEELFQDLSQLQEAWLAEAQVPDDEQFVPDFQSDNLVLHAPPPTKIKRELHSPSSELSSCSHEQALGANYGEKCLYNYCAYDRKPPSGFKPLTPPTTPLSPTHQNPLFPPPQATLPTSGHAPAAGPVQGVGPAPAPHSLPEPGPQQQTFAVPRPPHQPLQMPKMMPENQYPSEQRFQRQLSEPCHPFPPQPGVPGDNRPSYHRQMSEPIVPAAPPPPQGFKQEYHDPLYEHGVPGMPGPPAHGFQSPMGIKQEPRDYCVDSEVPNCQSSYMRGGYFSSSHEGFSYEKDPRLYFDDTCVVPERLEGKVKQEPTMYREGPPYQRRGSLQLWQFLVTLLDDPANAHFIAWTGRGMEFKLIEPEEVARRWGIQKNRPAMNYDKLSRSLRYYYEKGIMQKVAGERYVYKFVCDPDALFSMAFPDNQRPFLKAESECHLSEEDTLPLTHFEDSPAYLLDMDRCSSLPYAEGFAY
UniProt Q01892: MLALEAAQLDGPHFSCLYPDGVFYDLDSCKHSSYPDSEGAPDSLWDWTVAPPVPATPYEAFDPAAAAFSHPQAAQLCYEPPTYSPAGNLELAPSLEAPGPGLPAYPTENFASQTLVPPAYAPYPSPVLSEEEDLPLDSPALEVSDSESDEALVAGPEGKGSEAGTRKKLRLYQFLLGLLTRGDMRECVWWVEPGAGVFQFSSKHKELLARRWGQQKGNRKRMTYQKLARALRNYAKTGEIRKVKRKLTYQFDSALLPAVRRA

SPIB = SPIB (UniProt Q01892)
ETV2 = molecular target: T2, ETV2 (UniProt O00321)
T2 sequence: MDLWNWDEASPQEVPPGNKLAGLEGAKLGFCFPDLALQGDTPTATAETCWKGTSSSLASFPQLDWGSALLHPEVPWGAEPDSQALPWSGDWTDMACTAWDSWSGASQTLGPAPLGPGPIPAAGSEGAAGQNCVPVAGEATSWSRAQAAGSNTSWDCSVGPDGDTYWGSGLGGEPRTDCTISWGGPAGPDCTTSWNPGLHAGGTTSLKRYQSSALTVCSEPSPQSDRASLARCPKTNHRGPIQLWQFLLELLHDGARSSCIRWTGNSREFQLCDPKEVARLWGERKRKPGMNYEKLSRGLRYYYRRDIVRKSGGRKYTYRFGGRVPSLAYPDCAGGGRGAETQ

Sequence | binding signal (ETV5) | binding signal (ETV3L) | binding signal (SPIB) | binding signal (ETV2)
TTACGC | 1.19 | 1.05 | – | –
AACTAT | 1.37 | – | 1.29 | 1.49
GAAAAA | 1.13 | 1.16 | – | –
CATACG | 1.08 | – | 0.99 | 0.958
TGATCC | 1.3 | 1.28 | – | –
TCTATC | 1.19 | 1.27 | – | –
TAGTTG | 0.954 | 0.846 | – | –
TGAACA | 1.2 | – | 1.23 | 1.27
TTAGAT | 0.999 | – | 1.05 | 1.16
CACGTA | 1.13 | 1.17 | – | –
TCATAT | 1.23 | 1.3 | – | –
AAGCTA | 1.17 | 1.2 | – | –
TTAAGA | 0.986 | 0.98 | – | –
CATGGC | 0.996 | – | 0.966 | 1.04
CCGTTC | 1.43 | 1.44 | – | –
TATACA | 1.35 | 1.3 | – | –
GTTCGA | 1.07 | 0.997 | – | –
AGTACT | 1.19 | 1.12 | – | –
TACAGC | 0.973 | 1.08 | – | –

Sequence | binding signal (ETV5) | binding signal (ETV3L) | binding signal (SPIB) | binding signal (ETV2)
CGTTCT | 1.45 | 1.51 | – | –
CCGAAT | 1.14 | 1.24 | – | –
TCTATA | 1.17 | 1.09 | – | –
TTGGTT | 1.44 | 1.45 | – | –
CTCTTA | 1.41 | 1.5 | – | –
GCCGCA | 0.931 | – | 0.954 | 0.91
CTCAGC | 1.11 | 1.36 | – | –
ACCACG | 0.988 | 0.975 | – | –
GGTACA | 1.05 | – | 1.11 | 0.918
ACACGC | 1.1 | 1.07 | – | –
TCCCTG | 1.35 | 1.28 | – | –
GGTCTC | 2.46 | 2.36 | – | –
GCTATG | 1.13 | 1.16 | – | –
AAGTTA | 1.26 | 1.18 | – | –
TGTTGA | 1.07 | 1.17 | – | –
TAACTT | 1.45 | 1.47 | – | –
TTTGCA | 1.22 | – | 1.29 | 1.24
TGGCCA | 0.971 | 1.04 | – | –
CACCCC | 1.18 | 1.34 | – | –

Rewritten field by field: entries from further up
AAGTTA
  binding signal (ETV5) = 1.26
  binding signal (ETV3L) = 1.18
TGTTGA
  binding signal (ETV5) = 1.07
  binding signal (ETV3L) = 1.17

From PMC7862700
